Results published in US8859543B2, “Imidazo[1,2-a]pyrazine derivatives and their use for the prevention or treatment of neurological, psychiatric and metabolic disorders and diseases” (Janssen Pharmaceutica NV, priority 2010, dated 2014).

System: scopolamine induced memory deficit
Assay: Object recognition test (scopolamine induced memory deficit)
Assay type: in vivo, rat
Conditions: 1 mg/kg p.o. + Scop. 0.1 mg/kg, rats
Experimental: They were kept under a 12/12-hour light/dark cycle (lights on from 19.00 to 7.00 h) and had free access to food and water. […] A radio, which was playing softly, provided background noise in the room. […] The apparatus consisted of a circular arena, 83 cm in diameter. […] The light intensity was equal in the different parts of the apparatus, as fluorescent red tubes provided a constant illumination of about 20 lux on the floor of the apparatus. […] Each object was available in triplicate. Four different sets of objects were used. A testing session consisted of two trials. […] During the first trial (T1) the apparatus contained two identical objects (samples). Rats were placed in the apparatus facing the wall at the middle of the front (transparent) segment. After the first exploration period the rat was put back in its home cage. […] Exploration was defined as follows: directing the nose to the object at a distance of no more than 2 cm and/or touching the object with the nose. Sitting on the object was not considered as exploratory behavior.

## COc1cc2ncnc(N3CC[C@@H](Oc4cnc5ccccc5n4)C3)c2cc1OC [PQ10, 6,7-dimethoxy-4-[3(R)-(quinoxalin-2-yloxy)pyrrolidin-1-yl]quinazoline]
  exploration time first trial (e1), mean: 22.32 s
  exploration time second trial (e2), mean: 22.63 s
